The supplement of paper PMC10849652
This is one part of the list.

Amino acid sequences for entries named in this document (tags omitted). A change or cut given only in a name is not applied to a line headed by its entry.
UniProt Q16576, whole entry, looked up: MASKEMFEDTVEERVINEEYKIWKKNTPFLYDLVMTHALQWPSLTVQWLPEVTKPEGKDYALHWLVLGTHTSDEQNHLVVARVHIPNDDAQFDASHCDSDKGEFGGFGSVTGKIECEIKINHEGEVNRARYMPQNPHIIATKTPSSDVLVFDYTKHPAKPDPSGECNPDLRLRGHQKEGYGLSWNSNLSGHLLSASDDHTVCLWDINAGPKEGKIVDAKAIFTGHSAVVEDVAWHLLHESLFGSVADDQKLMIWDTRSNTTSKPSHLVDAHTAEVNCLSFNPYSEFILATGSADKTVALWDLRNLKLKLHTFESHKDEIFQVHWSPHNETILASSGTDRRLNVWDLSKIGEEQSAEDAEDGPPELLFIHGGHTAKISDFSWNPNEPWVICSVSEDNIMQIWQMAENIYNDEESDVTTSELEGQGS
UniProt P51606: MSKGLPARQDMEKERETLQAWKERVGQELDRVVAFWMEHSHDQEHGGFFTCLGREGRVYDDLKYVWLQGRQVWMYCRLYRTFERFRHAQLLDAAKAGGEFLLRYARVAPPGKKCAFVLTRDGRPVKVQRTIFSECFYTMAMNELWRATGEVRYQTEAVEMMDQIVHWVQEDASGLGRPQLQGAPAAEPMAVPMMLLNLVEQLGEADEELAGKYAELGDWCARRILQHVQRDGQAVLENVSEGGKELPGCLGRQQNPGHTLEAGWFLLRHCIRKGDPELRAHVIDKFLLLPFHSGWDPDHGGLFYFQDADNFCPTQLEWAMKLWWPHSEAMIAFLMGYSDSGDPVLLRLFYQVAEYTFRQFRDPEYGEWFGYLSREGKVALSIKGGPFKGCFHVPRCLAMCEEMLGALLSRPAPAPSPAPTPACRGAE
UniProt P98179: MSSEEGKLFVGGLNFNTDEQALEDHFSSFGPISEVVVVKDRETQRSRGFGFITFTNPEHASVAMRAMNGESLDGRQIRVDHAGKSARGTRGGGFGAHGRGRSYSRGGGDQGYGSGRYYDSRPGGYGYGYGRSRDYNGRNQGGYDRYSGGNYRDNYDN
UniProt Q9NW64: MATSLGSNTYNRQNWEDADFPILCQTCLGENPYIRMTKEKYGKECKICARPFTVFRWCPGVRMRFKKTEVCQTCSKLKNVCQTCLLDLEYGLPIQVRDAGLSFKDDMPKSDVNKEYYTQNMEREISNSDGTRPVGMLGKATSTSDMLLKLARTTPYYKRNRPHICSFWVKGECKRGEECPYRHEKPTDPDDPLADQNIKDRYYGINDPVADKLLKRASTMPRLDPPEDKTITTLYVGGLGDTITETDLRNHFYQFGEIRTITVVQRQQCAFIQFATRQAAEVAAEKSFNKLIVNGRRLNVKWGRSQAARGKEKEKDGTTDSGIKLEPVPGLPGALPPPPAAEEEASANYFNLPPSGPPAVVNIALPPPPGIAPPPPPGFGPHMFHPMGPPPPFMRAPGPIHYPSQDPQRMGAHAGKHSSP
UniProt Q14257: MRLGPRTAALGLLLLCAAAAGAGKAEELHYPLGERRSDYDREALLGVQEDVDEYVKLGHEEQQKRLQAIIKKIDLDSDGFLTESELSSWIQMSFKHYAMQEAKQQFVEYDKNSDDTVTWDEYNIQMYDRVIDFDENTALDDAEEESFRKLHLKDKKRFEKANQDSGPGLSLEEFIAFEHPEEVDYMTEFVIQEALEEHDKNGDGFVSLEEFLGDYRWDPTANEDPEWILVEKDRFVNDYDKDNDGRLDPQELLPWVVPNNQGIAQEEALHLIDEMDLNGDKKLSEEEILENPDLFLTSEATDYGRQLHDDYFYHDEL
UniProt Q8N1G1: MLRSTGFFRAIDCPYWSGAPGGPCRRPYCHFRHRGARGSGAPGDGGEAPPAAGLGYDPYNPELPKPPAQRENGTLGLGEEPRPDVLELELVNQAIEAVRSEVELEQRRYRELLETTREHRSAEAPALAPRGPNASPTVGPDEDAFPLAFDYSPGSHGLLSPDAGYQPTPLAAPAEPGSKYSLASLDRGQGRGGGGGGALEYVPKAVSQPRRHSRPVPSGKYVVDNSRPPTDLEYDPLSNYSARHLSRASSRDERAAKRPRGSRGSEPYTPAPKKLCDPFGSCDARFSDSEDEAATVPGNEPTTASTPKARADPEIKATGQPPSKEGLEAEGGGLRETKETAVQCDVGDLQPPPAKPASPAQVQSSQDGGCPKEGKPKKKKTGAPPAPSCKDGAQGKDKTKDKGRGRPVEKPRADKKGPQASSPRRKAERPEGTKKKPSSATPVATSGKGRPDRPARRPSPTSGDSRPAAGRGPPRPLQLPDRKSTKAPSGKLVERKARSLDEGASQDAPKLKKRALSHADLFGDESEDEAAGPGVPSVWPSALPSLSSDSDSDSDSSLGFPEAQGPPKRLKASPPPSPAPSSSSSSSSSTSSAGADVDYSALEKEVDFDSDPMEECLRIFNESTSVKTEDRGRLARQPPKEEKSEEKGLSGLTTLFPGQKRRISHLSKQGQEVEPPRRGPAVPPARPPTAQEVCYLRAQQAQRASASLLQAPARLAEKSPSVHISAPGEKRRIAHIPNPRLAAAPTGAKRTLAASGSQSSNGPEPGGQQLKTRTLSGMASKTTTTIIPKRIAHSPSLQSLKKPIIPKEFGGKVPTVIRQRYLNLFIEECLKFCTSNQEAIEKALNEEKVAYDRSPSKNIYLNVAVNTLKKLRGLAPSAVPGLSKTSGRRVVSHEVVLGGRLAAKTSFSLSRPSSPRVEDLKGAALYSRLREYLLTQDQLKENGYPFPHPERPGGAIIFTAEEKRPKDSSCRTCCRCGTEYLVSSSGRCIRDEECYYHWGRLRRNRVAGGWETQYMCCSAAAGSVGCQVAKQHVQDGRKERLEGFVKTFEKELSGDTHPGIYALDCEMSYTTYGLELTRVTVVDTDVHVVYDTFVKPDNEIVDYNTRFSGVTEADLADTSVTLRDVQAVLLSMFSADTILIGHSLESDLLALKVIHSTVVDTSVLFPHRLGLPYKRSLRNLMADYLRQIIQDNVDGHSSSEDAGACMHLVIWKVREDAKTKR
UniProt Q7Z6E9: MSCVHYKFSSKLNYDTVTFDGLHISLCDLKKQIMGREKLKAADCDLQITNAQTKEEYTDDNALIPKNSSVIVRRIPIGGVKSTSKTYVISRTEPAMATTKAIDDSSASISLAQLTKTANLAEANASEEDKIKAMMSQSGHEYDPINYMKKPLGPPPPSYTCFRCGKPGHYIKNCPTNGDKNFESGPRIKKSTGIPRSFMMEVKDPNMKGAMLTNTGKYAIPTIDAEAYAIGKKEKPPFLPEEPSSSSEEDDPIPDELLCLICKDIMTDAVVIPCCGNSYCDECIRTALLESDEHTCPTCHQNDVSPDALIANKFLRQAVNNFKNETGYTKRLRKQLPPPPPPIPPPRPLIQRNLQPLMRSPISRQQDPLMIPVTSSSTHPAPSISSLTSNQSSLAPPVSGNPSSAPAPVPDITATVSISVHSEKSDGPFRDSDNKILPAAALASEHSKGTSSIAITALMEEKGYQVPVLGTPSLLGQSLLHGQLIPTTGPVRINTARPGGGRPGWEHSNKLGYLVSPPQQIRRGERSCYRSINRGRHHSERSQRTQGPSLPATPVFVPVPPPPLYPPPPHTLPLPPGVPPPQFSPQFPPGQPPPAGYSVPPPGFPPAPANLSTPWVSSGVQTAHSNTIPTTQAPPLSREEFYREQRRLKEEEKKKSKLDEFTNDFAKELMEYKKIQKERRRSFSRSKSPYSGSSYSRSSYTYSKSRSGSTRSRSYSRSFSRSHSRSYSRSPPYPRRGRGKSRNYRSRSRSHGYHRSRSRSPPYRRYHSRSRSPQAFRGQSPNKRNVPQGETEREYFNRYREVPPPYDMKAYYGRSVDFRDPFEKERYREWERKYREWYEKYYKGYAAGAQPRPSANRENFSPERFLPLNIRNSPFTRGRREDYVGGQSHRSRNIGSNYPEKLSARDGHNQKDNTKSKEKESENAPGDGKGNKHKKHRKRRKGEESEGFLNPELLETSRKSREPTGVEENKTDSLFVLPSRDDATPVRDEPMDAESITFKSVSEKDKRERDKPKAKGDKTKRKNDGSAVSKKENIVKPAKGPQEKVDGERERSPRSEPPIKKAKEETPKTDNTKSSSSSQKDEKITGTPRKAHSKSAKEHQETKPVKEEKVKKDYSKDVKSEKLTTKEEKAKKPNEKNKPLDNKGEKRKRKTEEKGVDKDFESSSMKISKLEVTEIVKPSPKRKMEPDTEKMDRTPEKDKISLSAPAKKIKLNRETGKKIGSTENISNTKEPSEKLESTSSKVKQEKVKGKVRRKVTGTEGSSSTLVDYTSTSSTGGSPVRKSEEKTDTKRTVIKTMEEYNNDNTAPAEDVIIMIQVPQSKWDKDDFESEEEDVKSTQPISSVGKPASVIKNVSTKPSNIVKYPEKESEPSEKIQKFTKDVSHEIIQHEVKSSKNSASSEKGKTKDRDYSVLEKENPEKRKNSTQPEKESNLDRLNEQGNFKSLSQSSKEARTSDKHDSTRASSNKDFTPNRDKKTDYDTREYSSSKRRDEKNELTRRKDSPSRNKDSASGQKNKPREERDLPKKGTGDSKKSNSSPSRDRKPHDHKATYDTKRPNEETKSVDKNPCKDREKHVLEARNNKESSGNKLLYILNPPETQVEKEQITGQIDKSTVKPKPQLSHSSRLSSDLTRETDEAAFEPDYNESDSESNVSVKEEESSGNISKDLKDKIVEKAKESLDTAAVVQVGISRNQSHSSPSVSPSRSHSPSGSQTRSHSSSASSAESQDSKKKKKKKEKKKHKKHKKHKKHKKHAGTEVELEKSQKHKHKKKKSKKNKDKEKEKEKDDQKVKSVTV
UniProt Q9HCM1: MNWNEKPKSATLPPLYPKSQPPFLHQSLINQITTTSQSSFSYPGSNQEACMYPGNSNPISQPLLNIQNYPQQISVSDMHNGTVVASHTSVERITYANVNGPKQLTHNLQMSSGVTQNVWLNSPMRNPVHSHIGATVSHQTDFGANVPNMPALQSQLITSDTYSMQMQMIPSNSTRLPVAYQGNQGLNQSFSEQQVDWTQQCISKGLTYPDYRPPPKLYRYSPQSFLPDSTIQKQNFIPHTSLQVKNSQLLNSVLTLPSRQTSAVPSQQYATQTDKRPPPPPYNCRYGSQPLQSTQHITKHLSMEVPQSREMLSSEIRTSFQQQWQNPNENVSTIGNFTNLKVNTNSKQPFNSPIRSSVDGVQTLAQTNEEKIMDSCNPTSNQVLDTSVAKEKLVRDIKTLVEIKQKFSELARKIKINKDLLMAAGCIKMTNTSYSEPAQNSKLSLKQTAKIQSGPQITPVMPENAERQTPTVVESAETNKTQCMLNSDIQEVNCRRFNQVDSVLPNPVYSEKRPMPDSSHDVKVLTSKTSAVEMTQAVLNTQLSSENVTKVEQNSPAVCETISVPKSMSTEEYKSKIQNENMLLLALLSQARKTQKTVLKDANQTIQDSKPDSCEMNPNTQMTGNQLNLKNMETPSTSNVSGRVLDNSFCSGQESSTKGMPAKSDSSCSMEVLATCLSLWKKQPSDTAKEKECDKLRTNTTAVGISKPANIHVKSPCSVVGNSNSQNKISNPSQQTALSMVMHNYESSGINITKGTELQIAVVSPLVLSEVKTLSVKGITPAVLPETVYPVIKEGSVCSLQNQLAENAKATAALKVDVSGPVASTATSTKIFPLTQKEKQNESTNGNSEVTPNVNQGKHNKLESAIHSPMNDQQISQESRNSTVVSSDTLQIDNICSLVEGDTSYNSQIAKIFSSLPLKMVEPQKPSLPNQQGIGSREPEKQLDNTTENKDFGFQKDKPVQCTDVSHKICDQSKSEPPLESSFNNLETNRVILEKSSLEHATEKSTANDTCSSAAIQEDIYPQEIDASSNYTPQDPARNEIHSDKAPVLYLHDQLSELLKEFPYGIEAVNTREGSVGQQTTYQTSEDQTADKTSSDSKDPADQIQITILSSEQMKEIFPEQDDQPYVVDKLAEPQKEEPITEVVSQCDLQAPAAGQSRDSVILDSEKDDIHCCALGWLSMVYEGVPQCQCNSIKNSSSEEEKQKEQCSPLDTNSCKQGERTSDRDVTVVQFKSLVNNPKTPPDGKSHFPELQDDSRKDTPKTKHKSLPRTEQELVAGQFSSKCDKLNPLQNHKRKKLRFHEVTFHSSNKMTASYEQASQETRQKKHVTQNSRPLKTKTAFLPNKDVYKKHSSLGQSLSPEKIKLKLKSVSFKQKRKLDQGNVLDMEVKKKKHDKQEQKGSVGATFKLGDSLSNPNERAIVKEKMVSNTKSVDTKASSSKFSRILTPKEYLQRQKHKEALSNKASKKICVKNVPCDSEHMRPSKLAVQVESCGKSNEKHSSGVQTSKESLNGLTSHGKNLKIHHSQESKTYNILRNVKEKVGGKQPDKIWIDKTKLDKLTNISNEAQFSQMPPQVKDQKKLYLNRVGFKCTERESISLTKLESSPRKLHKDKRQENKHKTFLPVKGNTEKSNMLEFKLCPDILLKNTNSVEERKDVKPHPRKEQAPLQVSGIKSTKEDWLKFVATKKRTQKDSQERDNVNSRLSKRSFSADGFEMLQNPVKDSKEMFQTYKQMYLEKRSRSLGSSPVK

Legend:
Experiment in all cases: log2 fold change, soluble protein after heating vs DMSO (PISA); higher = thermal stabilisation; K562 lysate, 10 uM; active = over 0.2 and 3.5 SD of the protein, either way, in both replicates (recomputed)
[1] = compound: C1=CC=C(C=C1)[C@H](COC2=CC3=C(C=C2)NC(=O)N3)NC(=O)C4=CC=CN(C4=O)CC5=CC(=C(C=C5)F)F
Procedure, shortened: (§1)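 The values are log-two fold changes in thermal stability compared with solvent controls and come from duplicates. They were obtained by TMTpro 16plex LC-MS/MS, with channel sums equalised, on the supernatant after 21,000xg for 90 min. That supernatant came from crude K562 extract at 1 mg/mL protein treated with 10 μM compound for 30 min, heated for 3 min across 48°C-58°C, pooled and brought to 0.5% NP-40 at 4°C.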

[2] = compound: CC1=C(SC2=C1C(=N[C@H](C3=NN=C(N32)C)CC(=O)N)C4=CC=C(C=C4)Cl)C
Procedure, shortened: as §1

[3] = compound: CC1=C2C(=CC=C1)N=C(N(C2=O)C3=CC=CC=C3C)CN4C=NC5=C(N=CN=C54)N
Procedure, shortened: as §1

[4] = compound: Cc1sc2c(c1C)C(c1ccc(Cl)cc1)=N[C@@H](CC(=O)OC(C)(C)C)c1nnc(C)n1-2
Procedure, shortened: as §1

[5] = compound: c1ccc([C@@H]2C[C@H]2NC2CCNCC2)cc1
Procedure, shortened: as §1

Row | Target | log2 fold change [1] | log2 fold change [2] | log2 fold change [3] | log2 fold change [4] | log2 fold change [5]
1 | RBBP5 (UniProt Q15291) | inactive: 0.047 | inactive: -0.009 | inactive: -0.004 | inactive: 0.006 | inactive: -0.032
2 | RCC1L (UniProt Q96I51) | inactive: 0.008 | inactive: 0.026 | inactive: 0.068 | inactive: -0.021 | inactive: 0.007
3 | RASSF5 (UniProt Q8WWW0) | inactive: -0.059 | inactive: 0.021 | inactive: -0.06 | inactive: -0.183 | inactive: -0.044
4 | RBSN (UniProt Q9H1K0) | inactive: 0.031 | inactive: 0.076 | inactive: 0.087 | inactive: 0.117 | inactive: -0.019
5 | RCSD1 (UniProt Q6JBY9) | inactive: 0.008 | inactive: 0.009 | inactive: 0.009 | inactive: -0.044 | inactive: -0.028
6 | RCL1 (UniProt Q9Y2P8) | inactive: -0.03 | inactive: -0.046 | inactive: -0.062 | inactive: -0.042 | inactive: -0.098
7 | RAPGEF5, A0A590UJR0 | inactive: -0.129 | inactive: 0.362 | inactive: 0.098 | inactive: 0.008 | inactive: -0.057
8 | RBM10 isoform 5 (UniProt P98175) | inactive: 0.046 | inactive: -0.038 | inactive: 0.044 | inactive: -0.018 | inactive: -0.049
9 | RBBP7 isoform 2 (UniProt Q16576) | inactive: -0.012 | inactive: -0.009 | inactive: -0.03 | inactive: -0.01 | inactive: -0.033
10 | RENBP (UniProt P51606) | inactive: 0.021 | inactive: 0.021 | inactive: 0.001 | inactive: -0.052 | inactive: -0.002
11 | RCE1 (UniProt Q9Y256) | inactive: -0.253 | inactive: 0.103 | inactive: 0.012 | inactive: 0.062 | inactive: 0.146
12 | RBM17 (UniProt Q96I25) | inactive: -0.003 | inactive: -0.004 | inactive: -0.024 | inactive: 0.029 | inactive: 0.026
13 | RETSAT (UniProt Q6NUM9) | inactive: 0.103 | inactive: -0.037 | inactive: 0.148 | inactive: -0.145 | inactive: -0.015
14 | RBBP8 isoform 2 (UniProt Q99708) | inactive: -0.031 | inactive: -0.133 | inactive: 0.093 | inactive: 0.046 | inactive: -0.014
15 | RBL1 (UniProt P28749) | inactive: -0.028 | inactive: 0.106 | inactive: -0.001 | inactive: 0.004 | inactive: 0.085
16 | RELCH isoform 2 (UniProt Q9P260) | inactive: 0.043 | inactive: 0.056 | inactive: 0.141 | inactive: -0.001 | inactive: 0.07
17 | RAVER1 (UniProt E9PAU2) | inactive: 0.102 | inactive: -0.092 | inactive: 0.014 | inactive: 0.041 | inactive: 0.001
18 | RFC4 (UniProt P35249) | inactive: -0.026 | inactive: -0.059 | inactive: 0.006 | inactive: 0.028 | inactive: 0.01
19 | RB1CC1 (UniProt Q8TDY2) | inactive: 0.011 | inactive: 0.02 | inactive: 0.024 | inactive: -0.041 | inactive: -0.038
20 | REV1 (UniProt Q9UBZ9) | inactive: -0.014 | inactive: -0.06 | inactive: -0.052 | inactive: 0.088 | inactive: 0.022

Part of the list above, with each value named:
RBBP5 (UniProt Q15291)
  log2 fold change [1]: inactive: 0.047
  log2 fold change [2]: inactive: -0.009
  log2 fold change [3]: inactive: -0.004
  log2 fold change [4]: inactive: 0.006
  log2 fold change [5]: inactive: -0.032
RCC1L (UniProt Q96I51)
  log2 fold change [1]: inactive: 0.008
  log2 fold change [2]: inactive: 0.026
  log2 fold change [3]: inactive: 0.068
  log2 fold change [4]: inactive: -0.021
  log2 fold change [5]: inactive: 0.007
RASSF5 (UniProt Q8WWW0)
  log2 fold change [1]: inactive: -0.059
  log2 fold change [2]: inactive: 0.021
  log2 fold change [3]: inactive: -0.06
  log2 fold change [4]: inactive: -0.183
  log2 fold change [5]: inactive: -0.044

The listing continues:

Row | Target | log2 fold change [1] | log2 fold change [2] | log2 fold change [3] | log2 fold change [4] | log2 fold change [5]
21 | RARS2 (UniProt Q5T160) | inactive: -0.032 | inactive: 0.041 | inactive: 0.051 | inactive: 0.006 | inactive: 0.039
22 | RCAN1 (UniProt P53805) | inactive: 0.141 | inactive: -0.074 | inactive: -0.063 | inactive: -0.026 | inactive: 0.026
23 | RBM3 (UniProt P98179) | inactive: 0.054 | inactive: 0.071 | inactive: -0.034 | inactive: -0.006 | inactive: 0.021
24 | RBM4 (UniProt Q9BWF3) | inactive: 0 | inactive: 0.016 | inactive: 0.022 | inactive: 0.03 | inactive: -0.007
25 | RFLNB (UniProt Q8N5W9) | inactive: 0.028 | inactive: -0.033 | inactive: 0.138 | inactive: 0.015 | inactive: 0.004
26 | RBBP4 (UniProt Q09028) | inactive: 0.022 | inactive: 0.033 | inactive: -0.013 | inactive: 0.006 | inactive: -0.066
27 | RBM7 (UniProt Q9Y580) | inactive: 0.034 | inactive: 0.025 | inactive: -0.013 | inactive: 0.059 | inactive: 0.073
28 | RBM34 (UniProt P42696) | inactive: 0.048 | inactive: 0.012 | inactive: -0.013 | inactive: 0.05 | inactive: 0.021
29 | RFC3 (UniProt P40938) | inactive: -0.032 | inactive: 0.003 | inactive: 0.026 | inactive: 0.055 | inactive: 0.024
30 | REEP4 (UniProt Q9H6H4) | inactive: -0.037 | inactive: 0.071 | inactive: 0.031 | inactive: 0.012 | inactive: 0.007
31 | RBM28 (UniProt Q9NW13) | inactive: -0.008 | inactive: 0.017 | inactive: -0.009 | inactive: 0.022 | inactive: 0.04
32 | RDX (UniProt P35241) | inactive: -0.029 | inactive: -0.036 | inactive: 0.003 | inactive: 0.025 | inactive: 0.148
33 | REL isoform 2 (UniProt Q04864) | inactive: 0.017 | inactive: 0 | inactive: -0.003 | inactive: 0.031 | inactive: 0.03
34 | RCOR1 (UniProt Q9UKL0) | inactive: -0.034 | inactive: 0.03 | inactive: -0.003 | inactive: -0.023 | active: 0.494
35 | RFFL (UniProt Q8WZ73) | inactive: 0.348 | inactive: 0.118 | inactive: -0.11 | inactive: -0.054 | inactive: -0.065
36 | RBM19 (UniProt Q9Y4C8) | inactive: -0.009 | inactive: 0.059 | inactive: -0.095 | inactive: 0.056 | inactive: 0
37 | RER1 (UniProt O15258) | inactive: -0.007 | inactive: -0.004 | inactive: 0.037 | inactive: 0.058 | inactive: -0.024
38 | RBM27 (UniProt Q9P2N5) | inactive: -0.038 | inactive: 0.074 | inactive: 0.043 | inactive: 0.035 | inactive: 0.027
39 | RDH14 (UniProt Q9HBH5) | inactive: 0.123 | inactive: -0.016 | inactive: -0.076 | inactive: 0.102 | inactive: -0.058
40 | RBM14 (UniProt Q96PK6) | inactive: 0.191 | inactive: -0.046 | inactive: 0.008 | inactive: 0.066 | inactive: 0.044

Row | Target | log2 fold change [1] | log2 fold change [2] | log2 fold change [3] | log2 fold change [4] | log2 fold change [5]
41 | RBM6 (UniProt P78332) | inactive: -0.042 | inactive: 0.018 | inactive: 0.009 | inactive: 0.025 | inactive: 0.037
42 | RERE (UniProt Q9P2R6) | inactive: 0.016 | inactive: 0.037 | inactive: -0.041 | inactive: -0.035 | inactive: -0.129
43 | RBM22 (UniProt Q9NW64) | inactive: -0.073 | inactive: 0.012 | inactive: 0.036 | inactive: 0.072 | inactive: 0
44 | RGS19 (UniProt P49795) |  |  |  |  | inactive: 0.082
45 | RFX2 (UniProt P48378) | inactive: 0.052 | inactive: 0.258 |  | inactive: -0.012 | inactive: 0.282
46 | RC3H2 (UniProt Q9HBD1) |  |  | inactive: 0.114 | inactive: -0.012 | inactive: -0.075
47 | RBMX2 (UniProt Q9Y388) |  |  | inactive: 0.012 | inactive: 0.105 | 
48 | RCN2 isoform 2 (UniProt Q14257) | inactive: 0.009 | inactive: -0.014 | inactive: -0.019 | inactive: 0.04 | inactive: 0.019
49 | RHBDD1 (UniProt Q8TEB9) | inactive: -0.032 | inactive: 0.058 | inactive: -0.117 |  | inactive: 0.039
50 | RELCH (UniProt Q9P260) |  |  | inactive: -0.129 | inactive: 0.091 | 
51 | REXO1 (UniProt Q8N1G1) | inactive: -0.015 | inactive: 0.055 |  |  | inactive: 0.328
52 | RGS14 (UniProt O43566) | inactive: -0.006 | inactive: 0.04 |  | inactive: -0.006 | inactive: -0.093
53 | RBBP6 (UniProt Q7Z6E9) | inactive: -0.009 | inactive: -0.013 | inactive: 0.047 | inactive: 0.028 | inactive: 0.01
54 | RASSF7 (UniProt Q02833) | inactive: -0.034 | inactive: 0.034 |  |  | inactive: 0.075
55 | RESF1 (UniProt Q9HCM1) |  |  |  | inactive: -0.011 | 
56 | RBFA (UniProt Q8N0V3) |  |  |  |  | inactive: 0.015
57 | RBP5 (UniProt P82980) |  |  | inactive: -0.065 | inactive: 0.062 | inactive: 0.103
58 | RBFOX2 isoform 8 (UniProt O43251) | inactive: 0.027 | inactive: 0.033 |  | inactive: -0.04 | inactive: 0.086
